± gives the standard deviation of the averaged measurements. The list shows a part of the results.
Each target was assayed with Nc1nc2c(ncn2[C@@H]2O[C@H](COP(=O)(O)OP(=O)(O)OP(=O)(O)O)[C@@H](O)[C@H]2O)c(=O)[nH]1 [guanosine triphosphate] (assay: NP40-soluble protein abundance relative to vehicle (solubility fold change) (ratio); higher = more soluble protein in presence of GTP). Conditions: concentration: 10mM.
Summary of the method: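 Across three independent experiments, values are fold changes against the detergent-processed vehicle for each replicate, based on vsn-normalised intensities. The samples were Jurkat crude lysate treated with eight concentrations (0.1 to 10 mM) for 10 min at room temperature and then 3 min at 37 °C. Lysate was solubilised with 0.8% NP40 and benzonase, ultracentrifuged, and the supernatant analysed by TMT-labelled LC-MS/MS.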

Chains of the proteins cited; added tags and fusions are not shown. Lines headed by an entry give the natural chain unless they say otherwise; changes in a name come on top.
UniProt P98194: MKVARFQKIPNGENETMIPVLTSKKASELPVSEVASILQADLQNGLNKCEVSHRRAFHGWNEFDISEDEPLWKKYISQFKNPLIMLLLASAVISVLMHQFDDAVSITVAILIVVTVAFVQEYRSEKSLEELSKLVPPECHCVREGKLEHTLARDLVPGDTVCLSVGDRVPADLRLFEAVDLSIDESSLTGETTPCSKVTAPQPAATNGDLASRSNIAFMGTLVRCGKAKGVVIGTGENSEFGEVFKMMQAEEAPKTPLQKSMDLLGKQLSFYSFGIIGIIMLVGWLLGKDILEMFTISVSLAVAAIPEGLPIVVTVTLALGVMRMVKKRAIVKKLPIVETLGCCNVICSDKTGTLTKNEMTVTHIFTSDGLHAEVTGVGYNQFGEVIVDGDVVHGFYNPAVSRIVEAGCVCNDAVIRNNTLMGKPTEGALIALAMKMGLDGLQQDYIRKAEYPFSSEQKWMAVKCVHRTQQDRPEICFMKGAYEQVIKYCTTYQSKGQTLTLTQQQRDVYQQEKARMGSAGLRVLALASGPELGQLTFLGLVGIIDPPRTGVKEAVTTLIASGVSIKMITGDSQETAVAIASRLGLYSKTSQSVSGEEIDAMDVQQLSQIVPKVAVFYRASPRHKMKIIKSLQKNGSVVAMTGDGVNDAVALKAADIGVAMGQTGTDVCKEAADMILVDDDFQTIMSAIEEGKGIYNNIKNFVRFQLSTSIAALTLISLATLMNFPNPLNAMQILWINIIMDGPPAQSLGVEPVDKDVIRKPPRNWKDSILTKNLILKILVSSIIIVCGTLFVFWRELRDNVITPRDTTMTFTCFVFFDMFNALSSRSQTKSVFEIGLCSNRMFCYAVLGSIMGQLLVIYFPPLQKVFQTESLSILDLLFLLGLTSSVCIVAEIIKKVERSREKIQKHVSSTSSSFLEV
UniProt Q9UFF9, whole entry: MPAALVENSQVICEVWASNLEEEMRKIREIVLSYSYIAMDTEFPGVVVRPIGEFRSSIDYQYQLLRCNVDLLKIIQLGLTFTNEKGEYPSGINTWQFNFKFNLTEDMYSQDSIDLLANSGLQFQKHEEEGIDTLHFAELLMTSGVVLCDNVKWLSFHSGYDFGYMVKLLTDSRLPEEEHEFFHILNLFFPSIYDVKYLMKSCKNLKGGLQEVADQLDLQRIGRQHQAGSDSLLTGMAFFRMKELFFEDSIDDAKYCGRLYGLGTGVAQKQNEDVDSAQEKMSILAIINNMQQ
UniProt Q9BUN8: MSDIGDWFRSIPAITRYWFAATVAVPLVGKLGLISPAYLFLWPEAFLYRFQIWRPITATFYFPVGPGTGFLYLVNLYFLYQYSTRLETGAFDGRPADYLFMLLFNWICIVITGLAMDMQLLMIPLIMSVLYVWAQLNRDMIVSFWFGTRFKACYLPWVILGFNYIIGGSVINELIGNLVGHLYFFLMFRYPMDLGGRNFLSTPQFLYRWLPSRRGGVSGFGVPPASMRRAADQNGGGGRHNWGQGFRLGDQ
UniProt Q9UMS0: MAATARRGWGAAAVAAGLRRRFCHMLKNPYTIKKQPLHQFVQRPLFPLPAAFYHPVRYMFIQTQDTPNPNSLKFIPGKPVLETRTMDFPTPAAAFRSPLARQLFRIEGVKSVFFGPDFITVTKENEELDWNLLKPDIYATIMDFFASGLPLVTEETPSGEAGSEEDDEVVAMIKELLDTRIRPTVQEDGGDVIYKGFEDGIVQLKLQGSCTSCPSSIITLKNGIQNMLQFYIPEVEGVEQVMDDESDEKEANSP
UniProt P48444: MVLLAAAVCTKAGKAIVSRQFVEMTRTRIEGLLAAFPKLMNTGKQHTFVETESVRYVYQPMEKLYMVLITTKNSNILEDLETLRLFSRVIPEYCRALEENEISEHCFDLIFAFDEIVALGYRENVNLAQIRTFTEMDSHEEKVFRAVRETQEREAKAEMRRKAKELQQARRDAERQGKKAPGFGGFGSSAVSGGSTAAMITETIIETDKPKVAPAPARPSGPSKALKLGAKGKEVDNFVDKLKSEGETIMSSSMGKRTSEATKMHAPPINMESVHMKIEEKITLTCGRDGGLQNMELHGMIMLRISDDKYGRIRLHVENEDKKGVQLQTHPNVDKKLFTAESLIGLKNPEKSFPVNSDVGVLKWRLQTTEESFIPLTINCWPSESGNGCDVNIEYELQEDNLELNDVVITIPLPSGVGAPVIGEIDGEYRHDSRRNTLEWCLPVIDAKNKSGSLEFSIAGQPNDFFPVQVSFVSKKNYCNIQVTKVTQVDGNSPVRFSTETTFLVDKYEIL
UniProt P35222, whole entry: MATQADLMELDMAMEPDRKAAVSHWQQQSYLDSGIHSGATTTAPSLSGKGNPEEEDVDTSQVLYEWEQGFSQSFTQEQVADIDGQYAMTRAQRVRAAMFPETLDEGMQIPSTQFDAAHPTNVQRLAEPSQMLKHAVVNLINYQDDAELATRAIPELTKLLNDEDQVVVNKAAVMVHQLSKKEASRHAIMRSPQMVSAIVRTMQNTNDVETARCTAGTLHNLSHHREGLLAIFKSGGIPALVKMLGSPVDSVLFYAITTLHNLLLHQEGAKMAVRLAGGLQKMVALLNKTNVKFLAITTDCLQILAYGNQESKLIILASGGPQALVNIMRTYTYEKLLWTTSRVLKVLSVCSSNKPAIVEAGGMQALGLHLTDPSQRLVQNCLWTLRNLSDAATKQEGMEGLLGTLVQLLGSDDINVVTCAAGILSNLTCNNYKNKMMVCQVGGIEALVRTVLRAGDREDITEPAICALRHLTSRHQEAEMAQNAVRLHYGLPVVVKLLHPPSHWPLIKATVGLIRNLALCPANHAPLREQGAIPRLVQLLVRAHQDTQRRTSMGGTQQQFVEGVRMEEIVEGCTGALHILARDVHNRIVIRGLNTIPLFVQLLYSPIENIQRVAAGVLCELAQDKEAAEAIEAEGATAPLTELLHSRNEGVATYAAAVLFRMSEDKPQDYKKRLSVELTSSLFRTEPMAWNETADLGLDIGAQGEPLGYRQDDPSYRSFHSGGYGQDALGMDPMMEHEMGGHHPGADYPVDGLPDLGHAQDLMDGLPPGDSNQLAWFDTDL
UniProt Q92664: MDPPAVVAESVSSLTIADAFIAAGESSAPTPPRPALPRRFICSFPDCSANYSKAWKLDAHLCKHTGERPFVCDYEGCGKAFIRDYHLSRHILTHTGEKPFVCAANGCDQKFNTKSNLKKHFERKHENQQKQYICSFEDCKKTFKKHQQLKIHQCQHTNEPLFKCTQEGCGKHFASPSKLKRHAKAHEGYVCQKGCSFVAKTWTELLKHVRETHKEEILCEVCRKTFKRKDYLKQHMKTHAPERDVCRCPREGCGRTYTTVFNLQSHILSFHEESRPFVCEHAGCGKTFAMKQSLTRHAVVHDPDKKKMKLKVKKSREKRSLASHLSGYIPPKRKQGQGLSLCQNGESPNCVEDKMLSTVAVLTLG
UniProt Q14919: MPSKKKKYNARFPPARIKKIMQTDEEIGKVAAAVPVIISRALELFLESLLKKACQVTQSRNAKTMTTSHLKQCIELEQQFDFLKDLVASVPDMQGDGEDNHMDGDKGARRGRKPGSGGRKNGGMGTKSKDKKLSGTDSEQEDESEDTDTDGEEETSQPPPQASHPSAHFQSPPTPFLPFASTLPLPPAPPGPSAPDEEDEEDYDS
UniProt Q9UJU6: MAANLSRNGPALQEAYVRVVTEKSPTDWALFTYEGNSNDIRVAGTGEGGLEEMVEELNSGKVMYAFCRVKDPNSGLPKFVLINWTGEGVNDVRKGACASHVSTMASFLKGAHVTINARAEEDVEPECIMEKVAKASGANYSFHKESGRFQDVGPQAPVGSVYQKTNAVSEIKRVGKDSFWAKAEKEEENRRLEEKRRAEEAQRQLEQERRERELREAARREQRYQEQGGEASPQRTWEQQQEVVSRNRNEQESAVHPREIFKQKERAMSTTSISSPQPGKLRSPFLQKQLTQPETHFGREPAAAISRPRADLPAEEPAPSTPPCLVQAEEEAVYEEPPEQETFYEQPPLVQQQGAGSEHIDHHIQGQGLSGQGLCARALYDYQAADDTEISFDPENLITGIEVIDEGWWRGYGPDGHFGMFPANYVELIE
UniProt Q9UM22: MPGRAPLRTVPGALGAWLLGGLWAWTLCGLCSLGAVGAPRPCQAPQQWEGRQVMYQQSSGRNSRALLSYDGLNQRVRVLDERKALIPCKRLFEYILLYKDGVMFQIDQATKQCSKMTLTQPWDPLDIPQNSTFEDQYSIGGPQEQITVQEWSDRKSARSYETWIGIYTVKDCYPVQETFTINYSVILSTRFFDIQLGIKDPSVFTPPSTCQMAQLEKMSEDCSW
UniProt Q5JSL3: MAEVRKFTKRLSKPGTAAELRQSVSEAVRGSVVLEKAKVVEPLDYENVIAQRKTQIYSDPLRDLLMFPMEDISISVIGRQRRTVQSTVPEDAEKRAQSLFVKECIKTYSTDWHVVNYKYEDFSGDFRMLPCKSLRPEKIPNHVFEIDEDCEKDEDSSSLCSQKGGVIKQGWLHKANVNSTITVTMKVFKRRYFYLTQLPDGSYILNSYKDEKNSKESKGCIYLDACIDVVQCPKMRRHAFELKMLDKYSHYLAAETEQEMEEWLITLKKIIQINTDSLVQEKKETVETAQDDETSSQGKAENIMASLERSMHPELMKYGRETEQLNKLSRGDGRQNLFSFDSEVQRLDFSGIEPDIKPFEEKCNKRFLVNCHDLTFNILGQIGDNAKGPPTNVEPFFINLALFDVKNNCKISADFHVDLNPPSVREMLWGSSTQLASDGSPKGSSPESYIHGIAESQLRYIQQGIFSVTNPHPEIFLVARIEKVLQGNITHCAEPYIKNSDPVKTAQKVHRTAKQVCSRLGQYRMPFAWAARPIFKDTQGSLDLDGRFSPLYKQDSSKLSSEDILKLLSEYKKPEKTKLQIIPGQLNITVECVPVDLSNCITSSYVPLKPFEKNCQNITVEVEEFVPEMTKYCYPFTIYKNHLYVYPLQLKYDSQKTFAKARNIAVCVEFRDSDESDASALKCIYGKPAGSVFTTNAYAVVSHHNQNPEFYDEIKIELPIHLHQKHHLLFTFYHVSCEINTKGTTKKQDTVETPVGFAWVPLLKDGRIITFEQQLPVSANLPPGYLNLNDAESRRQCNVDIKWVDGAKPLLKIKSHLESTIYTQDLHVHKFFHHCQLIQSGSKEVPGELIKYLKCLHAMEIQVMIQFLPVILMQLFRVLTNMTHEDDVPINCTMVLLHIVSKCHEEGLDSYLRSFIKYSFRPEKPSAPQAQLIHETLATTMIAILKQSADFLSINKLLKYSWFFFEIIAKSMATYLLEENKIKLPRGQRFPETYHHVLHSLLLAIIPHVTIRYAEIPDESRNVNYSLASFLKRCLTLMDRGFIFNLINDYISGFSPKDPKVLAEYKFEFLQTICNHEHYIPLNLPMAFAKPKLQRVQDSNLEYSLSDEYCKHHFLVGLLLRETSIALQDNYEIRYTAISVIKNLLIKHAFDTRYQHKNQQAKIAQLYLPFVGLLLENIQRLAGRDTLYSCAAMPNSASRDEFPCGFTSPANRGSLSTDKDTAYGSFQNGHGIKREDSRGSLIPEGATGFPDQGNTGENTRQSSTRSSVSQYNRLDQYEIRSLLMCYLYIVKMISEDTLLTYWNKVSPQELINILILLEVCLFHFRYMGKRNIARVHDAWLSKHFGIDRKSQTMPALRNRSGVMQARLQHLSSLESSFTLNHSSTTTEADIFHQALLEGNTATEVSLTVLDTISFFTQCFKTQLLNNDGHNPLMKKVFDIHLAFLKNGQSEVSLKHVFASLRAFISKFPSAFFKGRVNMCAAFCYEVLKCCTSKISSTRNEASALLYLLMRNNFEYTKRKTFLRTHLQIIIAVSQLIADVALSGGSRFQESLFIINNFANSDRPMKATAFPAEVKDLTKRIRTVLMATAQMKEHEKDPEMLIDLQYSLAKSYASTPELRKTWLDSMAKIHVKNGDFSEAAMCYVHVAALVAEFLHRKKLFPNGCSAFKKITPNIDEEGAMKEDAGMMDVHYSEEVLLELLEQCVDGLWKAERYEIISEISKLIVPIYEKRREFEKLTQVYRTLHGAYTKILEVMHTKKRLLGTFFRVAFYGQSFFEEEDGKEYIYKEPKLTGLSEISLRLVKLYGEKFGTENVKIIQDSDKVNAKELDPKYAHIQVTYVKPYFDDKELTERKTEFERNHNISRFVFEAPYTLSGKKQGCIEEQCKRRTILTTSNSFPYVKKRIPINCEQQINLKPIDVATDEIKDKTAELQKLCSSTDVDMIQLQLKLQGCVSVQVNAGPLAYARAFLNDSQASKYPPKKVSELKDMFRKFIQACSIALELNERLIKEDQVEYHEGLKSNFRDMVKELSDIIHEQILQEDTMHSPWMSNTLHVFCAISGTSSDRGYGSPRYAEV
UniProt Q9BQ75: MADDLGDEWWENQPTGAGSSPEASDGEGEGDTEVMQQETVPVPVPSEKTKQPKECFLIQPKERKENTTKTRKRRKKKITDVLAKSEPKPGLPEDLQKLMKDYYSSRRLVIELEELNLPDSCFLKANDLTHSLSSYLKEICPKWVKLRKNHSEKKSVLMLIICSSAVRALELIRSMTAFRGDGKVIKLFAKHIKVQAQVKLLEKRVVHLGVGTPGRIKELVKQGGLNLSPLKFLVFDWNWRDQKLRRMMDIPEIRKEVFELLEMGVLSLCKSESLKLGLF

Row | Target | NP40-soluble protein abundance
1 | C9K025 and related entries (UniProt P18077) | 0.824 ± 0.32
2 | B4E2Q0 and related entries (UniProt P98194) | 0.935 ± 0.085
3 | B7Z9U0 and related entries (UniProt Q9UFF9) | 1.21 ± 0.22
4 | B4E1G1 and related entries (UniProt Q9BUN8) | 1.01 ± 0.044
5 | C9J8Q1 and related entries (UniProt Q9UMS0) | 0.954 ± 0.12
6 | B1AH77 and related entries (UniProt P15153) | 0.822 ± 0.061
7 | B0YIW6 and related entries (UniProt P48444) | 0.933 ± 0.067
8 | B4DGU4 and related entries (UniProt P35222) | 0.949 ± 0.1
9 | B7ZBK4 and related entries (UniProt Q92664) | 1.02 ± 0.16
10 | C9J6U3 and related entries (UniProt O60879) | 0.978 ± 0.043
11 | C9J2Y1 and related entries (UniProt P49116) | 0.951 ± 0.035
12 | C9JCC6 and related entries (UniProt Q14919) | 1.06 ± 0.26
13 | B4DDD6 and related entries (UniProt Q9UJU6) | 0.849 ± 0.078
14 | B4DJ62 and related entries (UniProt Q99719) | 1.04 ± 0.061
15 | D6RIH7 and related entries (UniProt Q9UM22) | 0.889 ± 0.11
16 | A6NIW2 and related entries (UniProt Q5JSL3) | 1.02 ± 0.081
17 | C9IY68 and related entries (UniProt Q9BQ75) | 1.31 ± 0.04
18 | B8ZZU8 and related entries (UniProt Q15370) | 0.916 ± 0.037

Quoted at random: 2 records from the list.
Row | Target | NP40-soluble protein abundance
8 | B4DGU4 and related entries (UniProt P35222) | 0.949 ± 0.1
4 | B4E1G1 and related entries (UniProt Q9BUN8) | 1.01 ± 0.044

Reference: the supplement of paper PMC6411743
